In PMC7819943, “Rice protein-binding microarrays: a tool to detect cis-acting elements near promoter regions in rice”:
Some of the results follow.

Each sequence was assayed against T1, OsSMF1 (Oryza sativa, UniProt Q6ZLB0 1-436) (assay: protein-binding microarray (RPBM); PBS, 2% BSA, 51.3 ng/ul salmon testes DNA, 50 uM zinc acetate, 200 nM TF, 25 C, 1 h; high values mean tight binding). Details: protein: recombinant; tags: N-terminal polyhistidine and DsRed monomer fusion (pET32a); chain copies: 2; label: CyDye5-dUTP incorporated in the synthesized complementary strand; 3' TTTTT single-stranded linker to array surface; dsDNA, one strand shown.
T1 sequence: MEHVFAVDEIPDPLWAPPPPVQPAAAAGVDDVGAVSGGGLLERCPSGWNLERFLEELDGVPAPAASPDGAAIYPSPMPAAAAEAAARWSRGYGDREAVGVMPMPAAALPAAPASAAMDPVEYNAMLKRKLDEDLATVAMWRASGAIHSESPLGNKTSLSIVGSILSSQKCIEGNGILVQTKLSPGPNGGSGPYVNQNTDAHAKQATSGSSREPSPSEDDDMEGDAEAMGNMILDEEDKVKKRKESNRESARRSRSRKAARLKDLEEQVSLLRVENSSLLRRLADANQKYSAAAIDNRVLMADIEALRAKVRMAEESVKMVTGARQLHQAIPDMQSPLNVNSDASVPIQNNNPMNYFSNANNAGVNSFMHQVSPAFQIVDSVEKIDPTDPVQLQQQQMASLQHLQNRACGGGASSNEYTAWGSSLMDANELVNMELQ
Summary of the method: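 Per-feature fluorescence intensity (arbitrary units), read on an Axon 4000B scanner, is the binding signal. Transcription factors carrying an N-terminal polyhistidine tag and DsRed fusion were expressed in E. coli BL21-CodonPlus and purified on Ni–NTA. A custom Agilent array, made double-stranded by primer extension with Cy5-dUTP and blocked with 2% BSA, was incubated with 200 nM protein in PBS, 2% BSA, salmon testes DNA and 50 µM zinc acetate at 25 °C for 1 h and then washed.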
“GTTGTTGTTCTTGGATGTGAATGTGAATAATGTGATGTTTCGGAGTCACCTAGTGCAG” was tested, and the binding signal was 3350 fluorescence intensity (a.u.).
In the case of “CTCGAAATCTGGAACTTATTAGACTTCTCATGGTACGAATCGGAGTCACCTAGTGCAG”, the binding signal is reported as 4450 fluorescence intensity (a.u.).
In the case of “GCTCTCTCTTCATCCTCCATGGCTATGGCTTGCATGATCTCGGAGTCACCTAGTGCAG”, the binding signal is reported as 3250 fluorescence intensity (a.u.).
For “TTGGCCCAGTGGTCTTCCAAATGAGGCCCCACGAAGCCCTCGGAGTCACCTAGTGCAG”, the binding signal was 6420 fluorescence intensity (a.u.).
With “AAATAAATTTGACGTGAAGTGGAATGACAGCTGGTGAACTCGGAGTCACCTAGTGCAG” the binding signal was 3520 fluorescence intensity (a.u.).
In the case of “CCGTTTAGCAGTTATGTACGTGTCAAAACCAGAGAATAGACGGAGTCACCTAGTGCAG”, the binding signal is reported as 4370 fluorescence intensity (a.u.).
In the case of “CCGTGACACCAGCTCATGCTTCCAGCTCACCACTAGCACCCGGAGTCACCTAGTGCAG”, the binding signal is reported as 6810 fluorescence intensity (a.u.).
In the case of “AACTAGTGCACAACTACACATCAGCTTCAGTCTGCTCACTCGGAGTCACCTAGTGCAG”, the binding signal is reported as 3210 fluorescence intensity (a.u.).
“TCATCCACCAACTGGTGCAGCAGGGTCCAGTCATACAAAGCGGAGTCACCTAGTGCAG” was tested, and the binding signal was 3220 fluorescence intensity (a.u.).
In the case of “TTTACAAAGTCAACGGTACAGATCATCAAACCAAGTGTTGCGGAGTCACCTAGTGCAG”, the binding signal is reported as 3250 fluorescence intensity (a.u.).
For “GAATTTCCCCGAAGGCCACGTCAAAACGCACGCAGCTACACGGAGTCACCTAGTGCAG”, the binding signal was 6480 fluorescence intensity (a.u.).
“CCAAATAGACTCTTACTTATAAGGGTTGAGTCTAGAGTGACGGAGTCACCTAGTGCAG” was tested, and the binding signal was 6050 fluorescence intensity (a.u.).
With “AATGATGACAAGGTTGCCCTACCTTGTCATCTTCCTCATCCGGAGTCACCTAGTGCAG” the binding signal was 5150 fluorescence intensity (a.u.).
“AGCTGGATTCATATCACAGTATCCCGTGCTCTAGCTGTCCCGGAGTCACCTAGTGCAG” was tested, and the binding signal was 3300 fluorescence intensity (a.u.).
With “ATTACCTTGTCACAGACAGCTCGCCGCACTTTCTCCCGAACGGAGTCACCTAGTGCAG” the binding signal was 4040 fluorescence intensity (a.u.).
With “AGTATATTCTTCTTACCCGACCGGTGACTTATTTCGAATGCGGAGTCACCTAGTGCAG” the binding signal was 4030 fluorescence intensity (a.u.).
“CAACCTCAACCTCACGCAGCTCCCGCGCCAACCGCGACCTCGGAGTCACCTAGTGCAG” was tested, and the binding signal was 3260 fluorescence intensity (a.u.).
“TCGTAGGGGTAGAGTTTGCGTGCGTGTGTTCATAGGGGTGCGGAGTCACCTAGTGCAG” was tested, and the binding signal was 4520 fluorescence intensity (a.u.).
In the case of “GTGGGCTTGTCATTTGTCAACACTGCAGTACAGCACCGTTCGGAGTCACCTAGTGCAG”, the binding signal is reported as 3160 fluorescence intensity (a.u.).
In the case of “ACCGCAGTCAGTGCCGCCACCAGCTGACCTGCCTGACCAACGGAGTCACCTAGTGCAG”, the binding signal is reported as 3160 fluorescence intensity (a.u.).
“GGGTTAAGTCCCCTTATATTTGTGTGTGCTAGGGGATCGGCGGAGTCACCTAGTGCAG” was tested, and the binding signal was 3140 fluorescence intensity (a.u.).
With “GGCGCGGTGAGGTGGCGGCGCAGTCGCCGGATCGGCTCCACGGAGTCACCTAGTGCAG” the binding signal was 4510 fluorescence intensity (a.u.).
“ACCACTGTTTGTGGAGTGTGTGCACACACCACCTCCGATGCGGAGTCACCTAGTGCAG” was tested, and the binding signal was 3810 fluorescence intensity (a.u.).
For “CTCATGGCAACTCAGCCCATGAAGAAAGACTTGTACAGGCCGGAGTCACCTAGTGCAG”, the binding signal was 3370 fluorescence intensity (a.u.).
For “ATGTGCTGGCGATCTTATCCACACCGTTTCCTTACACCCTCGGAGTCACCTAGTGCAG”, the binding signal was 37600 fluorescence intensity (a.u.).
“AATTTTGCTACAAGACATTACGATTTCGCGGTTTTAGCCGCGGAGTCACCTAGTGCAG” was tested, and the binding signal was 4220 fluorescence intensity (a.u.).
In the case of “GCCGACACGTCGCGACGCCGCTTGCCACGCGCCACGCGCGCGGAGTCACCTAGTGCAG”, the binding signal is reported as 6450 fluorescence intensity (a.u.).
In the case of “TCTTCATGTAGTCAGCATACATCTGTCACAGCCACAGACACGGAGTCACCTAGTGCAG”, the binding signal is reported as 4480 fluorescence intensity (a.u.).
“GTCTCAATTAGGACCTAGAAAAGTTCAATGGCGTATATGACGGAGTCACCTAGTGCAG” was tested, and the binding signal was 3330 fluorescence intensity (a.u.).
With “AGGAGAGGAAGAGAGAAAGAGAGAGAAGCAGAGCAGAGGACGGAGTCACCTAGTGCAG” the binding signal was 3300 fluorescence intensity (a.u.).
With “CTCTCAAAATATTCGGATGTAATTTTAGTCGCACAAACATCGGAGTCACCTAGTGCAG” the binding signal was 39200 fluorescence intensity (a.u.).
In the case of “GGTCATTCTACCCTCTGATACAGTACTAGTCACCATTCAGCGGAGTCACCTAGTGCAG”, the binding signal is reported as 4220 fluorescence intensity (a.u.).
In the case of “TTACAAAATTAAAACCATATATCGTCGTCACGTACTTTTACGGAGTCACCTAGTGCAG”, the binding signal is reported as 3360 fluorescence intensity (a.u.).
In the case of “CCTTCCCCGTCGCGCTCTCCTTGGCGTCGGACATCTTCTCCGGAGTCACCTAGTGCAG”, the binding signal is reported as 3310 fluorescence intensity (a.u.).
With “AGGTAGTAGGAACGGGTGACAATAGTCGGCCAGCTCTACACGGAGTCACCTAGTGCAG” the binding signal was 4110 fluorescence intensity (a.u.).
In the case of “TAATTAGATCGTGCGTGCGTGCGTGCTGTTCGTGAATGTTCGGAGTCACCTAGTGCAG”, the binding signal is reported as 5460 fluorescence intensity (a.u.).
With “TGACATAGAGAGTGATCACAAGCGAAATATTTATTCGGAACGGAGTCACCTAGTGCAG” the binding signal was 48300 fluorescence intensity (a.u.).
In the case of “CTCCGCATCTCCCCTCAATCTTACTCCGTCACTGACACGTCGGAGTCACCTAGTGCAG”, the binding signal is reported as 8980 fluorescence intensity (a.u.).
For “GAGCGACGCCGACGCCTCCCTCGCATTCGCATCAGCCCTGCGGAGTCACCTAGTGCAG”, the binding signal was 19300 fluorescence intensity (a.u.).
For “TTTCGTATATAAAGATTTCGCATGAAACATATCATTTAGCCGGAGTCACCTAGTGCAG”, the binding signal was 11800 fluorescence intensity (a.u.).
With “GGTGCTACTCCCAACGTCATATGTTGACCAGCGTCGAAGGCGGAGTCACCTAGTGCAG” the binding signal was 3210 fluorescence intensity (a.u.).
“AACAAGTGTGTTGGTGGTGGTGGAAGTTGTTACAGAATTGCGGAGTCACCTAGTGCAG” was tested, and the binding signal was 3470 fluorescence intensity (a.u.).
